Publication PMC4363142
No constants are given. Whether binding was seen depends on the method and setting. For some of these results: In cells and extracts the contact can be indirect. Some binding calls cover weakened binding; strength is not graded here. For some of these results: Tags and fused reporters may be left off the sequences shown.

T1: LRGUK-1 wild type (leucine-rich repeats and guanylate kinase-domain containing isoform 1), full length, in pDEST32 (mouse) (UniProt Q9D5S7)
T1 sequence: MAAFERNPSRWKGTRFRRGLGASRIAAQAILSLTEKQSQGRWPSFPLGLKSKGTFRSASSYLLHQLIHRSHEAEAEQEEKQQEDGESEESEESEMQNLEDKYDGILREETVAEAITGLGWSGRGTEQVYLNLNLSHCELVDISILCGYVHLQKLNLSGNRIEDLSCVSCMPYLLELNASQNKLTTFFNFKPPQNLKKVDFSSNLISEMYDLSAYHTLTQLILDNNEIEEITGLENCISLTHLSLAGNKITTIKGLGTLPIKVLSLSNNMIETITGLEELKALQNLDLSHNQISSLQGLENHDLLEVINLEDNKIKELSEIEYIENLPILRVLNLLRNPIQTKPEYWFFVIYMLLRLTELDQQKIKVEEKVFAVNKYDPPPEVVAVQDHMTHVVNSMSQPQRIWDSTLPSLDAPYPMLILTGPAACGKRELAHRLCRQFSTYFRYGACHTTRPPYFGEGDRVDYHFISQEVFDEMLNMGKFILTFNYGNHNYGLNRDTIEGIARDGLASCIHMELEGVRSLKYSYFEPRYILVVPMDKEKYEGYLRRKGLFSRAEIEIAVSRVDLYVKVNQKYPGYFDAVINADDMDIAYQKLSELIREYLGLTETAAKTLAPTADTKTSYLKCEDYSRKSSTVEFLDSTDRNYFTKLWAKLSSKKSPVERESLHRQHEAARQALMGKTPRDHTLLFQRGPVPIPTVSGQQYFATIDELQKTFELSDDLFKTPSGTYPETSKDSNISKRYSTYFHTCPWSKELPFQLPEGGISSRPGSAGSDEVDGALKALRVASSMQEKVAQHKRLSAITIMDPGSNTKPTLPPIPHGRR

T2: LRGUK^Kaos (LRGUK-1 R528Stop), in pDEST32 (mouse) (UniProt Q9D5S7)
T2 sequence: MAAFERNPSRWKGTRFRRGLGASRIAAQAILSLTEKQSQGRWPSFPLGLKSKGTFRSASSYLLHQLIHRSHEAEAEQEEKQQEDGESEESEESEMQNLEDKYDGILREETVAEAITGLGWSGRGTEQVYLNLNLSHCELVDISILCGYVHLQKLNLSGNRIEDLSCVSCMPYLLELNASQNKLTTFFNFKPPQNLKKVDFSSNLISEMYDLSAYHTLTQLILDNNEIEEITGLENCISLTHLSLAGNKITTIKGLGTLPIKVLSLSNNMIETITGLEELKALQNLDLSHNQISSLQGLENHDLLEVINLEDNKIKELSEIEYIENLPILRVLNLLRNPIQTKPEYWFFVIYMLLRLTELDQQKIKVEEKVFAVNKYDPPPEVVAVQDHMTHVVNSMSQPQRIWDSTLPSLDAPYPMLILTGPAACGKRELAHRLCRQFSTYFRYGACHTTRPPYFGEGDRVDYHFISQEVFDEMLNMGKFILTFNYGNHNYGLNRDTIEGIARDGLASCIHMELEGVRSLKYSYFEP

T3: EGFP-tagged LRGUK-1 (full length mouse Lrguk-1 in pEGFP-C1) (mouse) (UniProt Q9D5S7)
T3 sequence: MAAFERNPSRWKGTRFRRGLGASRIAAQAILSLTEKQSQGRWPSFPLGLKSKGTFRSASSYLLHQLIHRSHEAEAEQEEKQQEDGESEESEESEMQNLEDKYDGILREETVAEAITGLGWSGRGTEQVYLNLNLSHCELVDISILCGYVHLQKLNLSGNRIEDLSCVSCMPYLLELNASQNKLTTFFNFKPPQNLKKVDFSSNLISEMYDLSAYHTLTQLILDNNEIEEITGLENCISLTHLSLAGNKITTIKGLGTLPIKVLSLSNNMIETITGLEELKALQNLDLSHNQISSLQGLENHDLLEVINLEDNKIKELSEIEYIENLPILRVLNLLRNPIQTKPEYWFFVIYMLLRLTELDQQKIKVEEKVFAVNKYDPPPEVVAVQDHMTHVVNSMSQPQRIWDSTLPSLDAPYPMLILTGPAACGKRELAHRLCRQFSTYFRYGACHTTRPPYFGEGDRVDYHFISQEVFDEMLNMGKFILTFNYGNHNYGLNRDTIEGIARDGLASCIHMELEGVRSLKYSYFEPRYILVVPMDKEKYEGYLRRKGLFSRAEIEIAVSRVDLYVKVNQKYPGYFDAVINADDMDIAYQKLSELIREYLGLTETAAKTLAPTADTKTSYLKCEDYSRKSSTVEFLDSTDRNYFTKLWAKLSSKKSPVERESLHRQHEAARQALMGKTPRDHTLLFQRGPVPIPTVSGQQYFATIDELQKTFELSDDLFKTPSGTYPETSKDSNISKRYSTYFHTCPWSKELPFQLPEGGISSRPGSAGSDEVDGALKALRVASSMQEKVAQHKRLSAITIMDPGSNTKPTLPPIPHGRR


What was measured:
[1] = target: T1, LRGUK-1 wild type (leucine-rich repeats and guanylate kinase-domain containing isoform 1), full length, in pDEST32 (mouse); experiment: two-hybrid; directed test: HOOK2-pDEST22 prey co-transformed into Mav203 yeast with LRGUK^WT-pDEST32, LRGUK^Kaos-pDEST32 or empty pDEST32, growth on selection media
[2] = target: T2, LRGUK^Kaos (LRGUK-1 R528Stop), in pDEST32 (mouse); experiment: as above
[3] = target: T1, LRGUK-1 wild type (leucine-rich repeats and guanylate kinase-domain containing isoform 1), full length, in pDEST32 (mouse); experiment: two-hybrid; library screen: LRGUK^WT-pDEST32 as bait, adult mouse testis cDNA library in pDEST22 as prey, co-transformed into Mav203 yeast (ProQuest Two-Hybrid System)
[4] = target: T3, EGFP-tagged LRGUK-1 (full length mouse Lrguk-1 in pEGFP-C1) (mouse); experiment: co-IP; EGFP-tagged LRGUK-1 expressed in HEK293 cells, precipitated with anti-GFP-Trap-A beads; blot for endogenous HOOK2

| Binder | binding [1] | binding [2] | binding [3] | binding [4] |
| --- | --- | --- | --- | --- |
| HOOK2 C-terminal amino acids 369-716 (longest HOOK2 clone of the testis cDNA library), in pDEST22 (domain or fragment, UniProt Q7TMK6 369-716) VQELQGQWQEEAMKAEKWLFECRNLEEKCDLVTKEKERLLTERDSLREANEELRCAQLQPRGLAQADLSLDPTPSGLENLAAEILPAELRETLVRLQLENKRLCQQEAADRERQEELQRHLEEANRARHGLEAQQRLNQQQLSELRAQVEELQKALQEQGGKTEDPTLLKRKLEDHLQKLHEADLELQRKREYIEELEPPTDSSTARRIEELQDSLQKKDADLRAMEERYRRYVDKARTVIQTLEPKQRPPTVVSPEFHTLRSQLWERNLRIRQMEMDYEKSRRRQEQEEKLLISAWYSMGMALEHRAGEEHAPAHAQSFLAQQRLATNARRGPLGRQALSLRPTDKH | binds | no binding | binds | – |
| endogenous HOOK2 of HEK293 cells (protein, UniProt Q96ED9 1-719) MSVDKAELCGSLLTWLQTFHVPSPCASPQDLSSGLAVAYVLNQIDPSWFNEAWLQGISEDPGPNWKLKVSNLKMVLRSLVEYSQDVLAHPVSEEHLPDVSLIGEFSDPAELGKLLQLVLGCAISCEKKQDHIQRIMTLEESVQHVVMEAIQELMTKDTPDSLSPETYGNFDSQSRRYYFLSEEAEEGDELQQRCLDLERQLMLLSEEKQSLAQENAGLRERMGRPEGEGTPGLTAKKLLLLQSQLEQLQEENFRLESGREDERLRCAELEREVAELQHRNQALTSLAQEAQALKDEMDELRQSSERAGQLEATLTSCRRRLGELRELRRQVRQLEERNAGHAERTRQLEDELRRAGSLRAQLEAQRRQVQELQGQRQEEAMKAEKWLFECRNLEEKYESVTKEKERLLAERDSLREANEELRCAQLQPRGLTQADPSLDPTSTPVDNLAAEILPAELRETLLRLQLENKRLCRQEAADRERQEELQRHLEDANRARHGLETQHRLNQQQLSELRAQVEDLQKALQEQGGKTEDAISILLKRKLEEHLQKLHEADLELQRKREYIEELEPPTDSSTARRIEELQHNLQKKDADLRAMEERYRRYVDKARMVMQTMEPKQRPAAGAPPELHSLRTQLRERDVRIRHLEMDFEKSRSQREQEEKLLISAWYNMGMALQQRAGEERAPAHAQSFLAQQRLATNSRRGPLGRLASLNLRPTDKH | – | – | – | binds |
